In patent US20200102357A1 one finds binding data, which are given here for one molecule.

Experiment [1] has as its target purified human αvβ5 integrin (human). Nature of the experiment: plate assay on coated αvβ5 integrin, linear regression slope superimposed.
Experiment [2] shares this target. Nature of the experiment: plate assay: wells coated with 5 ng purified human αvβ5 integrin, increasing amounts of rat Angptl4-V5 supernatant, anti-V5 HRP, OD 450 nm.

These are yes or no findings as the source states them, for the method shown. Binding can be weak; no strength is given. Sequences can lack the tags named with a protein.

B1: recombinant rat Angptl4-V5 (sialylated), secreted from HEK293 stable cell line (ligand, not shown: small tags and cut ends)
chain: QGRPAQPEPPRFASWDEMNLLAHGLLQLGHGLREHVERTRGQLGALERRMAACGNACQGPKGTDPKDRVPEGQAPETLQSLQTQLKAQNSKIQQLFQKVAQQQRYLSKQNLRIQNLQSQIDLLTPTHLDNGVDKTSRGKRLPKMAQLIGLTPNATRLHRPPRDCQELFQEGERHSGLFQIQPLGSPPFLVNCEMTSDGGWTVIQRRLNGSVDFNQSWEAYKDGFGDPQGEFWLGLEKMHSITGDRGSQLAVQLQDWDGNAKLLQFPIHLGGEDTAYSLQLTEPTANELGATNVSPNGLSLPFSTWDQDHDLRGDLNCAKSLSGGWWFGTCSHSNLNGQYFHSIPRQRQQRKKGIFWKTWKGRYYPLQATTLLIQPMEATAAS
modifications: sialylated (cells cultured with ManNAc)
For B1, the binding entry in experiment [1] and in experiment [2] was “binds” in each case.
